In paper doi:10.1101/2025.08.21.671625, “α-catenin phosphorylation is actomyosin-sensitive and required for epithelial barrier functions through Afadin” (bioRxiv, 2025):
No constants are given. Whether binding was seen depends on the method and setting. Some entries that bind do so weakly or less than the wild type. Tags and fused reporters may be left off the sequences shown.

The chains behind the UniProt entries cited, without tags or fusion partners.
UniProt P35221: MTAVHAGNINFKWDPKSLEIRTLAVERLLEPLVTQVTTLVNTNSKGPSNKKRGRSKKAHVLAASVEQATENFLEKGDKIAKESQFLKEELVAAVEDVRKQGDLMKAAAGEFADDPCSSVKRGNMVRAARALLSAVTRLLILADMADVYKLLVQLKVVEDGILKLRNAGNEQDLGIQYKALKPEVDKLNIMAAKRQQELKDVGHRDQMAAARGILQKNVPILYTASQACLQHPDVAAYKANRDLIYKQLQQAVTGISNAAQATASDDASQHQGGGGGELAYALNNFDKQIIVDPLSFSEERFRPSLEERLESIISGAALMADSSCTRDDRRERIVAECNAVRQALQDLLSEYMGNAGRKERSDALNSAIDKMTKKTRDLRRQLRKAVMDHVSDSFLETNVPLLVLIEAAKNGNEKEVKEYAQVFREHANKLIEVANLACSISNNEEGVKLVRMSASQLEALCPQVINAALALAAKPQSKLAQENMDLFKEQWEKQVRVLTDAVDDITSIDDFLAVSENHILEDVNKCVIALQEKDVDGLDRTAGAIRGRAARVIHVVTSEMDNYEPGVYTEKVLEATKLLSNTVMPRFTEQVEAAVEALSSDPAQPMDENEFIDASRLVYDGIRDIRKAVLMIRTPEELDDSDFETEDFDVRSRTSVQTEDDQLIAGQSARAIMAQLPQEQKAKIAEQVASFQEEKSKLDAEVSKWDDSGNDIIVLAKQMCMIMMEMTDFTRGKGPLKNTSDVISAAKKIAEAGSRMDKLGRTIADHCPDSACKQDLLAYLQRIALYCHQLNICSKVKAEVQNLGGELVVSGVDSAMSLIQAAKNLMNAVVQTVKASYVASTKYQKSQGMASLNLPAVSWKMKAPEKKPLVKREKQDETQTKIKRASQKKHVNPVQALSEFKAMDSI

Molecular target: T1, GST-Afadin-Coiled-coil α-cat binding region (Afadin-CC-ABR; amino acids 1391–1449) (rat)
T1 sequence: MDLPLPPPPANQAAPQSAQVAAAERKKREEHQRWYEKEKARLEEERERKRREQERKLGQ
Assay: pull-down; GST-Afdn-CC-ABR (or GST control) pre-bound to glutathione resin, mixed with α-cat prey proteins, washed, eluted with free glutathione; interaction strength assessed by Coomassie staining; both purified

With “full length αE-cat WT (from UniProt P35221 1-906)” the binding was “binds weakly”.
